Data published in PMC12335500.
No constants are given. Whether binding was seen depends on the method and setting. Binding seen in cells or lysates may run through a third protein. Some entries that bind do so weakly or less than the wild type. For some assays here: Where a sequence is shown, tags or fusion partners need not be part of it.

Protein sequences, listed by entry. Tags and fused reporters are not part of them.
UniProt P67809: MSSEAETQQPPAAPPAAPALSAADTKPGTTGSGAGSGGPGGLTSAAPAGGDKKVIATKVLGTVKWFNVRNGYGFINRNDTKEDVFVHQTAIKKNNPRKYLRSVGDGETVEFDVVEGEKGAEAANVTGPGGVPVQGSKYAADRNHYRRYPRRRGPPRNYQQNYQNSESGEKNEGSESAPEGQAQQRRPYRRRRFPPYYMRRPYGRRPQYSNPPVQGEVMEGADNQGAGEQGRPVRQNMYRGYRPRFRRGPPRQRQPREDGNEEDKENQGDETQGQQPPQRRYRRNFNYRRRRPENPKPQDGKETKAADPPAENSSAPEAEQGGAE

How the values were obtained:
[1] = target: T1, EPS8L2 (endogenous, HCT116 cells) (human (endogenous in HCT116)) (UniProt Q9H6S3); test: co-IP; endogenous EPS8L2 and endogenous YBX1 in HCT116 cells; RIPA lysate, antibody overnight at 4 °C, Protein A/G agarose beads
T1 sequence: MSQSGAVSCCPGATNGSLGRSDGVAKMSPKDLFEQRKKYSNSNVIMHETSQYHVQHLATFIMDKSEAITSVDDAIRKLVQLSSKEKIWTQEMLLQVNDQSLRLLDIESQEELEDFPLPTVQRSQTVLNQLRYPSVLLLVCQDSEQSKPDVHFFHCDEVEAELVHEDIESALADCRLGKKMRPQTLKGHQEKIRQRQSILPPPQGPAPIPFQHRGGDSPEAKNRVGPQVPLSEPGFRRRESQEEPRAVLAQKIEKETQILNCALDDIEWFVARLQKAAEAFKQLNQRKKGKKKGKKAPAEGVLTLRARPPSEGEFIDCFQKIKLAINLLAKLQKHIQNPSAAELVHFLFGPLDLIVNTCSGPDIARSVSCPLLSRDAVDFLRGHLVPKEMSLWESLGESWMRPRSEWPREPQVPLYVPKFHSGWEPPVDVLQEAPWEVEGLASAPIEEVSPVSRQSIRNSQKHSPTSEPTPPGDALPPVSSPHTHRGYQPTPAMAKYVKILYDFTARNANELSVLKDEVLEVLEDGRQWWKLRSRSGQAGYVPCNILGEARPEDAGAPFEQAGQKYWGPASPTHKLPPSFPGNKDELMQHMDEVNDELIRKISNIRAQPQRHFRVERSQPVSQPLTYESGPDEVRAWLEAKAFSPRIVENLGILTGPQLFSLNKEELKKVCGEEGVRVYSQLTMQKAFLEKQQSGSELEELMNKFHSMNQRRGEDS

[2] = target: T2, EPS8L2 with a C-terminal Flag tag (exogenous, in HEK293T cells) (human) (UniProt Q9H6S3); test: co-IP; exogenous EPS8L2 and exogenous YBX1 in HEK293T cells; RIPA lysate, antibody overnight at 4 °C, Protein A/G agarose beads
T2 sequence: T1 sequence

| binding [1] | binding [2] | Substance |
| --- | --- | --- |
| binds |  | YBX1 (endogenous, HCT116 and SW480 cells) (from UniProt P67809 1-324) |
|  | binds | YBX1 with a C-terminal His tag (exogenous, in HEK293T cells) (from UniProt P67809 1-324) |
